The test system of this data set is 3T3-L1 adipocytes. Put plainly: Proteomic analysis of adipocytes by LC MS/MS. The conditions noted are these: 10 μM. The format is cell-based, Mus musculus. As to the method:
3T3-L1 preadipocytes were induced to differentiate into mature adipocytes with the same culture condition as described elsewhere. […] Avasimibe or DMSO was replaced freshly every 48 h. Each condition was cultured in triplicate. On day 6, adipocytes were washed with 1×PBS and scraped off the culture dishes. Adipocyte cell pellets were collected after centrifugation and subsequently digested with trypsin (Sigma-Aldrich, St. Louis MO, USA) at the Ratio of 1:50 (μg/μg) Trypsin to Protein. The tryptic peptides after trypsin digestion were separated on a nano LC system (1100 Series LC, Agilent Technologies, Santa Clara, CA) as described previously (D'Aquila, et al. 2015). Briefly, peptides were concentrated with Agilent 300SB-C18 enrichment column and separated with C18 reversed phase ZORBAX 300SB-C18 column. High resolution hybrid ion trap mass spectrometer LTQ-Orbitrap LX (Thermo Fisher Scientific, Waltham MA, USA) was employed to identify the peptides in the data-dependent positive acquisition mode. These experiments were done in Bindley Bioscience Center. We used the MaxQuant computational proteomics platform version 1.5.3.17 (Cox and Mann, 2008) to analyze the results from LC MS/MS analysis. The Mus musculus (24754 entries) sequence from UNIPROT retrieved on Sep. 1, 2015 and a common contaminants database were used as our reference databases. MaxQuant was set with parameters as follows: minimum peptides length was set to seven amino acids, and “Match between runs” interval was set to one minute; The FASTA databases were randomized and 1% of protein false discovery rate was allowed; With trypsin digestion, two missed cleavages were accepted; Three modifications per peptide were allowed, including one fixed modification as “Iodoethanol” and variable modifications as “Oxidation (M)” and “Acetyl (Protein N-term)”; Initial precursor was set to 0.07 and fragment mass tolerance set to 0.02 Da; Data were analyzed with “Label-free quantification” (LFQ) checked. The MaxQuant results were used in in-house script to remove all the common contaminant proteins and to calculate the average LFQ intensity values for the biological replicates and log transform [log2(x)]. The missing values were left blank unless indicated. A two tailed student t-test was performed on the LFQ intensity.

In the case of `CC(C)c1cc(C(C)C)c(CC(=O)NS(=O)(=O)Oc2c(C(C)C)cccc2C(C)C)c(C(C)C)c1` [avasimibe], where the note is “Day 2-Day 6, of 236 proteins”, the “number of identified proteins with decreased levels” value is recorded as 76 proteins, the “number of identified proteins with increased levels” value was 102 proteins and the “number of proteins not altered significantly” value is on record as 58 proteins. For the same compound, for the setting “filter >2-fold change”, the “number of proteins decreased >2-fold” value was 53 proteins and the “number of proteins increased >2-fold” value came out at 22 proteins.

The values are drawn from patent US12274681B2, “Compositions and methods for reducing skin fat” (Purdue Research Foundation, priority 2016, dated 2025).
